The source of these data is paper PMC7053340.

Amino acid sequences for entries named in this document (tags omitted).
UniProt P05412: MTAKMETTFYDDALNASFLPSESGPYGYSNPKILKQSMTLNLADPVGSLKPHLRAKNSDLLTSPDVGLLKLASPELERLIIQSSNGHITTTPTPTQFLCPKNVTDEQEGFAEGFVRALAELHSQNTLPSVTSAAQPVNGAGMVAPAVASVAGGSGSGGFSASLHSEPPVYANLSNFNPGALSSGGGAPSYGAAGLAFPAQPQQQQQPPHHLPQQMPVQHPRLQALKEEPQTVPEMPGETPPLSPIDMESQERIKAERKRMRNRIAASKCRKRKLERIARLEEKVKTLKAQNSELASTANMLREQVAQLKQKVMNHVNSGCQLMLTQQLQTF

The target in assay [1] is Flag-CtBP2 (C-terminal-binding protein 2, from pcDNA3-2×Flag-CtBP2) (human) (UniProt P56545). Put plainly: co-IP; Flag-tagged and Myc-tagged plasmids co-transfected into HC-OA cells, 48 h, lysed, anti-Flag agarose and anti-c-Myc agarose 4°C 2 h, four washes with 1×RIPA; blots with anti-Flag and anti-Myc.
The target in assay [2] is Flag-p300 (histone acetyltransferase p300, from pCDNA3-2×Flag-p300) (UniProt Q09472). The description is as above.
Assay [3] has as its target Flag-CtBP2 (C-terminal-binding protein 2, from pcDNA3-2×Flag-CtBP2) (human) (UniProt P56545). Description: co-IP; HC-OA cells transfected with pcDNA3-2×Flag-CtBP1 or -CtBP2, lysed in 1×RIPA buffer with protease inhibitors, anti-Flag agarose 4°C 2 h, four washes with 1×RIPA; blots with anti-p300, anti-c-Jun, anti-c-FOS, anti-CtBP1, anti-CtBP2; repeated in p300-KD cells (much less p300 and AP1 subunits pulled down).

These are yes or no findings as the source states them, for the method shown. In cells and extracts the contact can be indirect. Some binding calls cover weakened binding; strength is not graded here.

As to “Myc-c-FOS (AP1 subunit, from pCDNA3-6×Myc-c-FOS) (from UniProt P01100 1-380)”, the binding result is given as “no binding” in assay [1] and “binds” in assay [2].

For the substance “Myc-c-Jun (AP1 subunit, from pCDNA3-6×Myc-c-Jun) (from UniProt P05412 1-331)”, the binding entry in assay [2] is reported as “binds”.

Turning to “Myc-p300 (histone acetyltransferase p300, from pCDNA3-6×Myc-p300) (from UniProt Q09472 1-2414)”, in assay [1], the binding result is “binds”.

As for “p300 (histone acetyltransferase p300), endogenous (from UniProt Q09472 1-2414)”, the binding result in assay [3] is “binds”.
